# PubChem BioAssay AID652243 – Drosophila RNAi Screening Center – 2013
# Screen: 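Fly regulators of androgen-dependent reporter output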 (primary screen)
# System: Drosophila S2R+ cells
# Reagent: long dsRNA against Drosophila genes
# Duration: 72 h (48 h, then 24 h hormone)
# Treatment: synthetic androgen R1881 at 10 nM for 24 h
# Detection: 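Per-well raw luminescence of the androgen-driven firefly reporter and of the Renilla control, two replicates each, without normalisation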
# Scale: firefly reporter light: higher = more light from androgen-responsive reporter; Renilla control light: higher = more constitutive control signal (cell number, transfection)
# Hit rule: 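Hit when the log firefly-to-Renilla ratio dropped or increased by a fixed fold versus the mean of GFP or LacZ controls across duplicate plates; lowering cut given as 1.5 and as 3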
# Calls: active = hit: reporter lowered or raised; inactive = no hit
# The screen tested about 24,000 reagents; below is an unselected part of those with a known target gene and a result. Over the whole deposit, 246 (1%) got an active call. 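Plates not normalised; calls are printed but the firefly/Renilla ratio behind them is not deposited; fold cut for lowering reported inconsistently.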 The raw values are shown without normalisation. Entries without a mark were called inactive. Not stated in the record: the amount of reagent.
target gene,dsRNA,"firefly reporter light, replicate 1","firefly reporter light, replicate 2","Renilla control light, replicate 1","Renilla control light, replicate 2"
CG15278,DRSC02481,1.63e5,1.83e5,1.89e6,2.18e6
Cyp4ac3 (Cytochrome P450 4ac3),DRSC03304,7.11e5,7.30e5,2.46e6,2.62e6
TyrR (Tyramine receptor),DRSC16242,1.63e5,1.09e5,1.38e6,1.49e6
Vsx1 (Visual system homeobox 1),DRSC23004,6.45e5,8.28e5,1.70e6,2.00e6
Vsx1 (Visual system homeobox 1),DRSC25808,4.36e5,4.48e5,9.36e5,6.82e5
"betaNACtes6 (Nascent-associated complex beta-subunit-like, testis 6)",DRSC22925,3.51e5,8.67e5,8.88e5,1.80e6
"betaNACtes6 (Nascent-associated complex beta-subunit-like, testis 6)",DRSC26649,4.50e5,3.04e5,4.17e5,3.27e5
CG7458,DRSC11829,2.81e5,3.09e5,2.16e6,2.09e6
CG7458,DRSC21340,1.13e6,9.57e5,2.52e6,1.91e6
CG6800,DRSC16119,2.78e5,3.60e5,3.68e6,3.22e6
CG34040,DRSC38894,8.70e5,7.47e5,1.86e6,2.08e6
Mal-B2 (Maltase B2),DRSC02417,6.24e5,6.18e5,3.88e6,2.98e6
CHKov2 (CHK domain ov2),DRSC14262,64849,66805,5.31e5,5.91e5
CHKov2 (CHK domain ov2),DRSC28882,3.74e5,4.06e5,1.09e6,1.35e6
abo (abnormal oocyte),DRSC02926,2.32e5,2.09e5,1.54e6,1.67e6
CG9175,DRSC03153,4.55e5,6.53e5,1.95e6,1.65e6
ssp5 (short spindle 5),DRSC14955,66858,69503,2.76e5,4.66e5
CG15282,DRSC23090,42840,62802,3.39e5,4.79e5
CG15282,DRSC29233,5.43e5,6.47e5,1.13e6,1.28e6
Zmynd10 (Zinc finger MYND-type containing 10),DRSC09826,1.67e5,1.34e5,1.65e6,1.52e6
Zmynd10 (Zinc finger MYND-type containing 10),DRSC28996,3.47e5 (active),4.42e5,1.38e6,1.84e6
Zmynd10 (Zinc finger MYND-type containing 10),DRSC39051,6.96e5,5.65e5,2.31e6,2.25e6
Arp10 (Actin-related protein 10),DRSC19448,83819,81527,6.00e5,6.24e5
Arp10 (Actin-related protein 10),DRSC28715,3.30e5,2.57e5,9.69e5,9.80e5
Sirup (Starvation-upregulated protein),DRSC03031,3.04e5,3.16e5,2.45e6,2.66e6
Sirup (Starvation-upregulated protein),DRSC29298,1.02e6,7.82e5,2.19e6,1.65e6
Sirup (Starvation-upregulated protein),DRSC39012,6.12e5,4.99e5,1.55e6,1.27e6
Tig (Tiggrin),DRSC03456,1.38e5,85024,1.21e6,1.10e6
Tig (Tiggrin),DRSC28388,6.20e5,8.29e5,8.45e5,1.12e6
LysP (Lysozyme P),DRSC08676,33357,98671,5.97e5,6.58e5
LysP (Lysozyme P),DRSC25210,5.56e5,3.11e5,5.22e5,5.01e5
maf-S,DRSC07348,32624,67007,5.21e5,6.52e5
CROT (Carnitine O-octanoyltransferase),DRSC14518,36011,26552,1.53e5,2.11e5
CROT (Carnitine O-octanoyltransferase),DRSC14519,1.15e5,96521,1.16e6,1.25e6
CROT (Carnitine O-octanoyltransferase),DRSC27733,2.04e5,1.78e5,3.58e5,6.79e5
CG16959,DRSC10230,7.22e5,6.49e5,1.10e6,1.21e6
CG6733,DRSC16103,1.49e5,2.06e5,2.69e6,2.86e6
hook,DRSC03545,1.04e6,9.23e5,1.48e6,1.78e6
ppl (pumpless),DRSC11899,52154,78331,3.37e5,5.45e5
ppl (pumpless),DRSC27839,4.57e5,4.15e5,5.20e5,8.40e5

3 of these entries, set out differently:
{"target gene":"hook","dsRNA":"DRSC03545","firefly reporter light, replicate 1":1.04e6,"firefly reporter light, replicate 2":9.23e5,"Renilla control light, replicate 1":1.48e6,"Renilla control light, replicate 2":1.78e6}
{"target gene":"ppl (pumpless)","dsRNA":"DRSC11899","firefly reporter light, replicate 1":52154,"firefly reporter light, replicate 2":78331,"Renilla control light, replicate 1":3.37e5,"Renilla control light, replicate 2":5.45e5}
{"target gene":"ppl (pumpless)","dsRNA":"DRSC27839","firefly reporter light, replicate 1":4.57e5,"firefly reporter light, replicate 2":4.15e5,"Renilla control light, replicate 1":5.20e5,"Renilla control light, replicate 2":8.40e5}
